The test system of the series is anti-BCMA CAR-expressing T cells. The experiment in a line: RNA-seq and ATAC-seq of anti-BCMA CAR-expressing T cells. The series is classed as cell-based, human. The note with it: 1 μM.

The values that follow come from US20250186503A1, “METHODS AND COMBINATIONS FOR TREATMENT AND T CELL MODULATION” (Juno Therapeutics, Inc., priority 2018, published 2025).

Take `Nc1cccc2c1CN(C1CCC(=O)NC1=O)C2=O` (stereo not drawn) [lenalidomide, 3-(4-amino-1-oxo-1,3-dihydro-2H-isoindol-2-yl)piperidine-2,6-dione]: the “genes upregulated (RNA-seq)” value (24 hours of stimulation) is 214 genes. For the setting “7 days of stimulation”, the “change in chromatin accessibility (ATAC-seq)” value was found to be 2804 peaks and the “genes changed (RNA-seq)” value is on record as 583 genes.
